Consider one substance from doi:10.1101/2024.09.18.613695.

Sequences of proteins named here, by UniProt entry; tags and fusion partners are left off.
UniProt P51532: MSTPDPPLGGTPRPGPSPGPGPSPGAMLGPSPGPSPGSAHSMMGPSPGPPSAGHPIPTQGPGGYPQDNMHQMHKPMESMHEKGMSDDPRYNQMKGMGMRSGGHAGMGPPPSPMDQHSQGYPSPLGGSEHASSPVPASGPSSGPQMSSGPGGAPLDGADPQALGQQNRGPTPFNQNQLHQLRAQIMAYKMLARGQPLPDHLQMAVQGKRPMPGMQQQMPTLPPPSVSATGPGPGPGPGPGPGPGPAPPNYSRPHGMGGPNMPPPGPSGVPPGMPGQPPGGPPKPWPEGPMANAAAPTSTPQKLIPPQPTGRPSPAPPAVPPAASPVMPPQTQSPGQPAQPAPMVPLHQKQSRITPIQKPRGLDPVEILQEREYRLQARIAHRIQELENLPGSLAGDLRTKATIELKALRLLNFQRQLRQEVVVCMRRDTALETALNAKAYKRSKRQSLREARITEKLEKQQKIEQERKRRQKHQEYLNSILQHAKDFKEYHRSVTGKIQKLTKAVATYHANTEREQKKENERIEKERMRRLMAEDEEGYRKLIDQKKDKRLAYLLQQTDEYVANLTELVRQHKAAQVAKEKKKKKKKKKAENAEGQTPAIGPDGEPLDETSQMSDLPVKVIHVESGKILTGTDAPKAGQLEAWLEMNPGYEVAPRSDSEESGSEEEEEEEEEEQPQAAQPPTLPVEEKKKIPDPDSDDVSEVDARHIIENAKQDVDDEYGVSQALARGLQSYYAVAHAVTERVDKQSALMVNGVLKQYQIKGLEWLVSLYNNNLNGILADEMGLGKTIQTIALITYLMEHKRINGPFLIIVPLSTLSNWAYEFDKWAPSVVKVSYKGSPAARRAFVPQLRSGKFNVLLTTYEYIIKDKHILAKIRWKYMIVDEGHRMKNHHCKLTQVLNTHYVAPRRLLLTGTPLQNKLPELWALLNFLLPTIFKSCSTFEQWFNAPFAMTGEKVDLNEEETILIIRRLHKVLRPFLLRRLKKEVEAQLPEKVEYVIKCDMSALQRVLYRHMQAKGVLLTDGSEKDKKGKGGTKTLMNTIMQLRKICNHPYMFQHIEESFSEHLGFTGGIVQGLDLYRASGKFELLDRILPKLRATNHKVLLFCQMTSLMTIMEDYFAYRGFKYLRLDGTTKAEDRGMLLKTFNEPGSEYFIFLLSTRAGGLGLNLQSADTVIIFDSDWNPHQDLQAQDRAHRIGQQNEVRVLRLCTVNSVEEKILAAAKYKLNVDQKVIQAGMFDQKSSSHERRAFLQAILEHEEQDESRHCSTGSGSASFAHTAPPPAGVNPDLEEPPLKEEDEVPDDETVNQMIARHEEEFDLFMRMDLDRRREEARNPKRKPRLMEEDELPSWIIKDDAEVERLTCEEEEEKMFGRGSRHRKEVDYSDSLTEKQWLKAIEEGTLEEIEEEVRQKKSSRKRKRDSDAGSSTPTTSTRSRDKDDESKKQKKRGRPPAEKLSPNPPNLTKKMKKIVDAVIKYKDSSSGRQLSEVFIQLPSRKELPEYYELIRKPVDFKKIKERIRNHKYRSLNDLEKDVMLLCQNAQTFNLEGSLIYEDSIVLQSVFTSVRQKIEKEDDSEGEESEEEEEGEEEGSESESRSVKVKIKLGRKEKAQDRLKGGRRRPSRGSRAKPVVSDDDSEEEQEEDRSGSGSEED
UniProt Q12824: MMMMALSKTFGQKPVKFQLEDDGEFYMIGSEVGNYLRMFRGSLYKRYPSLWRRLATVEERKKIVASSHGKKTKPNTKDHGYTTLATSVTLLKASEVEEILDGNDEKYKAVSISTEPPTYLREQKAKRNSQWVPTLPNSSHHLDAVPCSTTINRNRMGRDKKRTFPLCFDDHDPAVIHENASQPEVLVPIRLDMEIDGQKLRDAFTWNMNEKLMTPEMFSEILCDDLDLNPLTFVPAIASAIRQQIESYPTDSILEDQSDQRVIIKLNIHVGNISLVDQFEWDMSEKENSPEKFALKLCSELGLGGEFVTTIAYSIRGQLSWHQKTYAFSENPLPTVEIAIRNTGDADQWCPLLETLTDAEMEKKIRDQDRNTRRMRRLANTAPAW

Results are given in words; binding and its absence hold for the method and conditions named. In cells and extracts the contact can be indirect. Some entries that bind do so weakly or less than the wild type.

The target of the assay is BRM/SWI2-related gene 1 (BRG1) (human (endogenous in VA-ES-BJ and NEPS)) (UniProt P51532). In words: co-IP.

For the substance “SWI/SNF-related, matrix associated, actin dependent regulator of chromatin, subfamily B, member 1 (SMARCB1) (from UniProt Q12824 1-385)”, the binding entry is “binds”.
